Record: PubChem BioAssay AID1259425 (University of Nebraska Medical Center, 2018)

Purpose: 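Seek colon cancer weak points whose silencing resembles KSR1 loss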 (primary screen)
System: HCT116 human colon cancer cells
Reagents: siRNA pool against human genes, 50 nM siRNA
Detection: 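mRNA of six signature genes measured together by branched-DNA assay after 50 nM siRNA pool, blank removed, divided by geometric mean of two housekeeping genes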
Scale: BNIP3L mRNA: higher = more BNIP3L transcript after knockdown; NDRG1 mRNA: higher = more NDRG1 transcript after knockdown
In all, the deposit lists about 14,000 reagents; below is an unselected part. Not all columns of the deposit are shown. Not given: the time to read-out.

After knock-down of RAPGEF3 (GeneID 10411), the record shows BNIP3L mRNA, set 1 = 0.125; NDRG1 mRNA, set 1 = 0.267.
After knock-down of TRPC3 (GeneID 7222), the screen gave BNIP3L mRNA, set 1 = 0.0469; NDRG1 mRNA, set 1 = 0.194.
CYP19A1 (GeneID 1588) scored BNIP3L mRNA, set 1 = 0.0505; NDRG1 mRNA, set 1 = 0.295.
For DDX11 (GeneID 1663) the deposit lists BNIP3L mRNA, set 1 = 0.0761; NDRG1 mRNA, set 1 = 0.0942.
After knock-down of CLIC2 (GeneID 1193), the screen gave BNIP3L mRNA, set 1 = 0.0948; NDRG1 mRNA, set 1 = 0.234.
Knock-down of BBS2 (GeneID 583) gave: BNIP3L mRNA, set 1 = 0.0462; NDRG1 mRNA, set 1 = 0.297.
For GLIPR1L1 (GeneID 256710), the entry reads BNIP3L mRNA, set 1 = 0.102; NDRG1 mRNA, set 1 = 0.158.
After knock-down of POPDC1 (GeneID 11149), the screen gave BNIP3L mRNA, set 1 = 0.0866; NDRG1 mRNA, set 1 = 0.127.
For DCTN4 (GeneID 51164) the deposit lists BNIP3L mRNA, set 1 = 0.0955; NDRG1 mRNA, set 1 = 0.105.
PLOD3 (GeneID 8985) scored BNIP3L mRNA, set 1 = 0.267; NDRG1 mRNA, set 1 = 1.79.
With knock-down of TSC22D4 (GeneID 81628), the record shows BNIP3L mRNA, set 1 = 0.159; NDRG1 mRNA, set 1 = 0.205.
With knock-down of PCDH17 (GeneID 27253), the screen gave BNIP3L mRNA, set 1 = 0.195; NDRG1 mRNA, set 1 = 0.0947.
KCNIP1 (GeneID 30820) scored BNIP3L mRNA, set 1 = 0.0944; NDRG1 mRNA, set 1 = 0.148.

Ordered by “NDRG1 mRNA, set 1” (highest first): 2 of the entries above.
BBS2 (GeneID 583) | BNIP3L mRNA, set 1 = 0.0462; NDRG1 mRNA, set 1 = 0.297
GLIPR1L1 (GeneID 256710) | BNIP3L mRNA, set 1 = 0.102; NDRG1 mRNA, set 1 = 0.158

The results go on.
For CRY2 (GeneID 1408), the entry reads BNIP3L mRNA, set 1 = 0.0349; NDRG1 mRNA, set 1 = 0.255.
With knock-down of ABRACL (GeneID 58527) the results were BNIP3L mRNA, set 1 = 0.103; NDRG1 mRNA, set 1 = 0.0396.
Silencing of OGFR (GeneID 11054) gave: BNIP3L mRNA, set 1 = 0.084; NDRG1 mRNA, set 1 = 0.0785.
Against PARP14 (GeneID 54625), the values are BNIP3L mRNA, set 1 = 0.114; NDRG1 mRNA, set 1 = 0.13.
For PTX3 (GeneID 5806), the values are BNIP3L mRNA, set 1 = 0.148; NDRG1 mRNA, set 1 = 0.233.
For KCNA4 (GeneID 3739), the values are BNIP3L mRNA, set 1 = 0.0835; NDRG1 mRNA, set 1 = 0.318.
Depletion of SPDEF (GeneID 25803) came out at: BNIP3L mRNA, set 1 = 0.249; NDRG1 mRNA, set 1 = 0.31.
ATG14 (GeneID 22863) showed BNIP3L mRNA, set 1 = 0.112; NDRG1 mRNA, set 1 = 0.115.
Depletion of CCNB1 (GeneID 891) gave: BNIP3L mRNA, set 1 = 0.148; NDRG1 mRNA, set 1 = 0.153.
UCP3 (GeneID 7352) showed BNIP3L mRNA, set 1 = 0.233; NDRG1 mRNA, set 1 = 0.483.
With knock-down of GALNT10 (GeneID 55568), the record shows BNIP3L mRNA, set 1 = 0.155; NDRG1 mRNA, set 1 = 1.17.
Knock-down of KRT17 (GeneID 3872) gave: BNIP3L mRNA, set 1 = 0.166; NDRG1 mRNA, set 1 = 0.362.
Knock-down of PCNX1 (GeneID 22990) gave: BNIP3L mRNA, set 1 = 0.109; NDRG1 mRNA, set 1 = 0.345.
CARF (GeneID 79800) gave BNIP3L mRNA, set 1 = 0.103; NDRG1 mRNA, set 1 = 0.078.
Knock-down of NIPSNAP1 (GeneID 8508) resulted in: BNIP3L mRNA, set 1 = 0.0831; NDRG1 mRNA, set 1 = 0.294.
